The target in one assay is T1, Syt4 132–425 (human, UniProt Q9H2B2-1 132-425).
T1 chain: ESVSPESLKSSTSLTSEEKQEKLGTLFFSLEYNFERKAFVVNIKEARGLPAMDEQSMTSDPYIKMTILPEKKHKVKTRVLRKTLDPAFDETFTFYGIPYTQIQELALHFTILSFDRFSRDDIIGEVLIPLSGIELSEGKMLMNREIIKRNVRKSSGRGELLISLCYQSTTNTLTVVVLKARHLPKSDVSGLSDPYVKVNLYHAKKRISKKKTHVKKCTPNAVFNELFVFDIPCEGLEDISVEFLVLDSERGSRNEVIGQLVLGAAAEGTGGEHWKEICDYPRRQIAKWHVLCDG
The experiment in a line: condition: ARMS 200 μM in the syringe, Syt4 20 μM in the cell; ITC; ARMS proteins (200 μM) in the syringe, Syt4 proteins (20 μM) in the cell; 25 °C; 50 mM Tris, 100 mM NaCl, 1 mM EDTA, 1 mM DTT, pH 7.8; one-site binding model; both purified.

Amino acid sequences for entries named in this document (tags omitted). Residues count along the entry.
UniProt P21579, residues 140-422: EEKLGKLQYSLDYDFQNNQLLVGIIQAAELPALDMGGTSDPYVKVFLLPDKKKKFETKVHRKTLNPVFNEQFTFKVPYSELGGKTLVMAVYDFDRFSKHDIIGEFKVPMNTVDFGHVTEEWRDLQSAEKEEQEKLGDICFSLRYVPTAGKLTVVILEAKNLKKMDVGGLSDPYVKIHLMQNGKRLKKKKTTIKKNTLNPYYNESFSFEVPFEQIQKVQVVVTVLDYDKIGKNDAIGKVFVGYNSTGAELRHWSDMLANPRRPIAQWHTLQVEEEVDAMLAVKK

The target of assay [1] is T2, Syt4 C2A-L (residues 151–290) (human) (UniProt Q9H2B2).
T2 sequence: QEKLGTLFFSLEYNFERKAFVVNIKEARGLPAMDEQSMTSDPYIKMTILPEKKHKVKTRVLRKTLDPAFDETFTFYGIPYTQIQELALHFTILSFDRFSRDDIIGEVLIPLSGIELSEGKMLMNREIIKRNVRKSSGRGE
Briefly: SEC; analytical gel filtration chromatography (AGFC) of the single proteins and their mixture (1:1 told for ARMS NT and Syt4 CD); Superose 12 or Superdex 200 increase column; 50 mM Tris, 100 mM NaCl, 1 mM EDTA, 1 mM DTT, pH 7.8; both purified.

In assay [2] the target is T3, Syt4 L-C2B (residues 279–425) (human) (UniProt Q9H2B2).
T3 sequence: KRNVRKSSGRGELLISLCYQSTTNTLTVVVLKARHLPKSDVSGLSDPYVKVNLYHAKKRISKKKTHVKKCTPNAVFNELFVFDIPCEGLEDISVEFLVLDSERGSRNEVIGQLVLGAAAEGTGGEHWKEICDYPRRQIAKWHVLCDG
The assay is described as above.

The target of assay [3] is T4, Syt3 C2AB (residues 292–587) (human) (UniProt Q9BQG1).
T4 sequence: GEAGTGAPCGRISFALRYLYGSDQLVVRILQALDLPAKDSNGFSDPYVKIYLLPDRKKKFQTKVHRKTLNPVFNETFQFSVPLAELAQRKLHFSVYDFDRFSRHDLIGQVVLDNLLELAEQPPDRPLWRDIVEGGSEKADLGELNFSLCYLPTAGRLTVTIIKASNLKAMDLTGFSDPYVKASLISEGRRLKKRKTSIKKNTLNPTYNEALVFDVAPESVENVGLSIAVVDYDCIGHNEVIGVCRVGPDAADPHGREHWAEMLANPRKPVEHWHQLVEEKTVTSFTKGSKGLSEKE
Described as above.

The target of assay [4] is T5, Syt4 linker (residues 41–150) (human) (UniProt Q9H2B2).
T5 sequence: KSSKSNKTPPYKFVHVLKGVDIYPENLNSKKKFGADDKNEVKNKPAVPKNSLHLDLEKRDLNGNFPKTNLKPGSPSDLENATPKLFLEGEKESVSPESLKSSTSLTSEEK
The assay is described as above.

Assay [5] concerns the target Syt1 C2AB (residues 140–422) (human) (UniProt P21579). The description is as above.
Assay [6] deals with T6, Syt4 C2AB (residues 151–425) (human, UniProt Q9H2B2-1 151-425).
T6 construct: also called Syt4 CAB; source: E. coli BL21 (DE3), purified (Ni-NTA, size-exclusion chromatography)
T6 sequence (looked up): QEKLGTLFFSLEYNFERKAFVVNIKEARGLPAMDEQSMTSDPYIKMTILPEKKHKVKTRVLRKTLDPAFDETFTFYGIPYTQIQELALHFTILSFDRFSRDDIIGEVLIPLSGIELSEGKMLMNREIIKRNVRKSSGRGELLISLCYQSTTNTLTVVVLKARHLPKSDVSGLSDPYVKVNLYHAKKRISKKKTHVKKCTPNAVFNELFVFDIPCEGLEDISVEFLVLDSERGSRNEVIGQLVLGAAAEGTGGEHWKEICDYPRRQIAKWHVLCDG
The description is as above.

Substitutions are numbered along the chain they refer to. Names may count otherwise. These are yes or no findings as the source states them, for the method shown.

B1: ARMS R1-11 bearing the E14K and E15K variants (domain or fragment, UniProt Q9EQG6 1-365)
chain: MSVLISQSVINYVKKENIPALKALLEKCKDVDERNECGQTPLMLAAEQGNVEIVKELLKNGANCNLEDLDNWTALISASKEGHIHIVEELLKSGASLEHRDMGGWTALMWACYKGRTDVVELLLSHGANPSVTGLYSVYPIIWAAGRGHADIVHLLLQNGAKVNCSDKYGTTPLVWAARKGHLECVKHLLAMGADVDQEGANSMTALIVAVKGGYTQSVKEILKRNPNVNLTDKDGNTALMIASKEGHIEIVQDLLDAGTYVNIPDRSGDTVLIGAVRGGHVEIVRALLQKYADIDIRGQDNKTALYWAVEKGNATMVRDILQCNPDTEICTKDGETPLIKATKMRNIEVVELLLDKGAKVSAVD
With B1, the binding entry with Syt4 132–425 is listed as “no binding”.

B2: ARMS ankyrin repeats 1–11 (R1-11, residues 1–365) (domain or fragment, rat, UniProt Q9EQG6 1-365, looked up)
chain: B1 chain with K14E, K15E
notes: ARMS (Kidins220), rat, UniProt Q9EQG6, residues 1-365: ankyrin repeats 1-11; also called ARMS R1-11; ARMS R1-11 WT; source: E. coli BL21 (DE3), purified (Ni-NTA, size-exclusion chromatography)
Consider B2, for which the binding result in assay [1] and in assay [2] was “no binding” each time.

B3: ARMS R1-11 E15K (domain or fragment, UniProt Q9EQG6 1-365)
chain: B1 chain with K14E
Regarding B3, the binding entry in the assay with Syt4 132–425 is recorded as “no binding”.

B4: ARMS R1-11 W72Q (domain or fragment, UniProt Q9EQG6 1-365)
chain: B1 chain with K14E, K15E, W72Q
B4: in the assay with Syt4 132–425, the binding entry was “no binding”.

B5: ARMS protein N-terminal region (NT, residues 1–455) (domain or fragment, UniProt Q9EQG6 1-455)
chain: MSVLISQSVINYVEEENIPALKALLEKCKDVDERNECGQTPLMLAAEQGNVEIVKELLKNGANCNLEDLDNWTALISASKEGHIHIVEELLKSGASLEHRDMGGWTALMWACYKGRTDVVELLLSHGANPSVTGLYSVYPIIWAAGRGHADIVHLLLQNGAKVNCSDKYGTTPLVWAARKGHLECVKHLLAMGADVDQEGANSMTALIVAVKGGYTQSVKEILKRNPNVNLTDKDGNTALMIASKEGHIEIVQDLLDAGTYVNIPDRSGDTVLIGAVRGGHVEIVRALLQKYADIDIRGQDNKTALYWAVEKGNATMVRDILQCNPDTEICTKDGETPLIKATKMRNIEVVELLLDKGAKVSAVDKKGDTPLHVAIRGRSRRLAELLLRNPKDGRLLYRPNKAGETPYNIDCSHQKSILTQIFGARHLSPTETDGDMLGYDLYSSALADILSEPT
Regarding B5, the binding entry in assay [3], in assay [4] and in assay [5] was “no binding” in each case.

B6: ARMS R2-11 protein (residues 35–365) (domain or fragment, UniProt Q9EQG6 35-365)
chain: NECGQTPLMLAAEQGNVEIVKELLKNGANCNLEDLDNWTALISASKEGHIHIVEELLKSGASLEHRDMGGWTALMWACYKGRTDVVELLLSHGANPSVTGLYSVYPIIWAAGRGHADIVHLLLQNGAKVNCSDKYGTTPLVWAARKGHLECVKHLLAMGADVDQEGANSMTALIVAVKGGYTQSVKEILKRNPNVNLTDKDGNTALMIASKEGHIEIVQDLLDAGTYVNIPDRSGDTVLIGAVRGGHVEIVRALLQKYADIDIRGQDNKTALYWAVEKGNATMVRDILQCNPDTEICTKDGETPLIKATKMRNIEVVELLLDKGAKVSAVD
Take B6: the binding entry in assay [6] is reported as “no binding”.

B7: ARMS R1-5 (residues 1–160) (domain or fragment, UniProt Q9EQG6 1-160)
chain: MSVLISQSVINYVEEENIPALKALLEKCKDVDERNECGQTPLMLAAEQGNVEIVKELLKNGANCNLEDLDNWTALISASKEGHIHIVEELLKSGASLEHRDMGGWTALMWACYKGRTDVVELLLSHGANPSVTGLYSVYPIIWAAGRGHADIVHLLLQNG
On to B7, for which the binding result in assay [6] is reported as “no binding”.

B8: ARMS R1-6 (residues 1–191) (domain or fragment, UniProt Q9EQG6 1-191)
chain: MSVLISQSVINYVEEENIPALKALLEKCKDVDERNECGQTPLMLAAEQGNVEIVKELLKNGANCNLEDLDNWTALISASKEGHIHIVEELLKSGASLEHRDMGGWTALMWACYKGRTDVVELLLSHGANPSVTGLYSVYPIIWAAGRGHADIVHLLLQNGAKVNCSDKYGTTPLVWAARKGHLECVKHLLA
As for B8, the binding result in assay [6] is on record as “no binding”.
